## Screening data, single-dose tests

Results are given as percent effect. How 0% and 100% were set is not recorded. Most values in the screen are low, and negative values occur. Compounds were drawn at random from those tested, without regard to their results. A dash means the value is not listed here; it may have been measured.

T. brucei: 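Whole-parasite assay of Trypanosoma brucei over 72 hours; the read-out is not stated. Tested at 30 µM. Higher reads as stronger inhibition (inferred: compounds with an IC50 in retests scored well above the rest). Values scatter widely below zero; nearly all retest evidence comes from the higher of the two concentrations used. About 64,000 compounds were tested under these conditions; 1.5% (about 940) showed 50% or more at least once.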
Toxoplasma: 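Assay of Toxoplasma gondii numbers, read through their beta-galactosidase reporter with a colour substrate. Compounds at 10 µM. Higher reads as fewer parasites (inferred from which compounds were picked for retests). Size under these conditions: about 67,000 compounds, about 260 of them at 50% or above in at least one test.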

structure,T. brucei,Toxoplasma
CN(C)C(=O)c1ccc(CNC(=O)NCCN(C)C2CCCC2)cc1,-26.78,2.01
CN(C(=O)CN1CCCC1Cc1ccccc1)c1ccccc1 (stereo not shown),21.08,-0.268
OC1(CN2CCCC2)COCCN(c2noc(-c3ccccc3)n2)C1 (stereo not shown),-70.6,21.78
CCc1nc(C2CCCN(c3nccc(C)n3)C2)no1 (stereo not shown),-23.71,-9.812
O=C(COC1CCCC1)NCCc1nc(-c2ccccn2)cs1,-0.304,-4.637
CCOc1ccc(C(=O)N(Cc2cnn(C)c2)C(C)C)cc1,4.278,5.501
CCn1ncc2c1CCCC2NCc1ccccc1N1CCOCC1 (stereo not shown),-7.538,-4.066
O=C(c1cncs1)N1CCOCC(Cc2ccncn2)C1 (stereo not shown),1.061,-5.344
O=C(NCc1ccco1)c1cc(N2CC[C@@H](O)C2)ccn1,-146.5,-1.082
O=C(c1ccnc(NC2CC2)c1)N1CCCC1c1cccc(Br)c1 (stereo not shown),-3.963,-8.439
CCN(CC1CCOC1)C(=O)c1nc(-c2ccco2)sc1C (stereo not shown),-22.71,3.233
Cl.Cl.OC(CN1CCN(Cc2ccc(F)c(F)c2)CC1)C1CC1 (stereo not shown),-46.46,-0.5473
CCCOc1ccc(CNCCn2cccn2)cc1,-36.24,15.95
O=C(Cc1csc(-c2cccc(Cl)c2)n1)NCc1cccc(C(=O)O)c1,-8.454,-
OCCC1CN(C2CCC2)CCN1C1CCCC1 (stereo not shown),-1.983,12.85
CC(C)NC(=O)N1CCn2c(nnc2C2CCCN2)C1 (stereo not shown),-,3.753
[H][C@@]12CCN(C(=O)C3CCOCC3)[C@]1([H])CCC(=O)N2CC1CC1,-17.74,-3.347
NS(=O)(=O)c1cnc(NCC2(c3ccccc3)CCC2)s1,-36.6,-6.538
Cc1cc(C(=O)NCC(C)N2CCc3ccccc32)on1 (stereo not shown),-,3.239
Cc1nc(CN2CCCCC2Cn2cccn2)nc2ccccc12 (stereo not shown),-47.76,0.777
COc1ccc2c(c1)C(C(=O)NCCCN1CCN(C)CC1)CC(=O)N2 (stereo not shown),-27.4,3.298
Cc1ccc(OCC(=O)NCC(C)C)nc1,-1.361,-1.208
O=C(CCN1CCc2ccccc21)N1C[C@@H](O)[C@H](N2CCCC2)C1,-36.76,-1.042
[H][C@@]12CCN(S(C)(=O)=O)[C@]1([H])CC[C@H](C(=O)NCc1ccco1)O2,5.578,-0.1127
[H][C@@]12C[C@@H](OCC3CC3)CN1CCN(S(=O)(=O)c1cccs1)C2,-2.721,8.595
O=C(O)CC(O)(CC(=O)O)C(=O)O.c1cncc(-c2nccc(CN3CCCC3)n2)c1,-11.44,0.1922
COc1nn(C)c2c1CCCN(C(=O)c1cnccn1)C2,-21.57,-11.35
Cc1noc(CS(=O)(=O)C/C=C/c2ccccc2)n1,-21.72,-3.951
CC(C)c1nc(C2CCCN(C(=O)CCCn3cccn3)C2)no1 (stereo not shown),-,5.061
OCC1(O)CCCN(Cc2ccccc2OCCc2ccccc2)CC1 (stereo not shown),3.091,15.67
COc1ccccc1CN(C)C(=O)NCc1c(C)cc(C)[nH]c1=O,17.31,-16.87
CCN1CCN(S(=O)(=O)c2cc(C)c(C)cc2Br)CC1,-,11.86
CCCn1cnc2c(cnn2-c2cccc(C)c2C)c1=O,-31.54,12.92
COc1ccc(C)cc1-n1cnnc1C1CCOCC1,-20.79,-8.732
CNc1nc(N2CCN(C)C(CCO)C2)nc2c1CCC2 (stereo not shown),-62.55,3.092
Cc1cccc(C2CC(=O)Nc3c2c(=O)[nH]n3C(C)C)c1 (stereo not shown),-6.012,6.108
CN(Cc1noc(C(C)(C)C)n1)Cc1ccccc1N1CCCC1,4.778,4.943
COc1cc(CNC(C)Cn2ccnc2)cc2c1OCCO2 (stereo not shown),-9.51,1.023
CCOCCn1nc(C)cc1C(=O)N1C[C@@H](C)[C@](O)(C2CC2)C1,-17.06,-3.001
Cn1ccnc1CN1CCC2(CC1)CCN(c1ccccc1)C2=O.O=C(O)C(F)(F)F,-39.83,5.781
CN(CCCn1cnc2c(N)ncnc21)Cc1ccccc1,-6.688,8.163
N#Cc1ccccc1N1CCCN(C(=O)CCc2ccco2)CC1,2.029,-0.1258
Cc1nc(C2CCCN2C(=O)c2ccc(=O)n(C)n2)no1 (stereo not shown),-43.63,2.032
Cc1nn(C)c(C)c1C1SCC(=O)Nc2c1c(O)nn2C(C)C (stereo not shown),-2.591,-9.879
Cn1nccc1C(=O)N1CCOC(Cc2ccc(Cl)cc2)C1 (stereo not shown),-20.83,17.53
COCc1csc(NC(=O)NCc2ccsc2)n1,6.977,0.885
Cc1nnc(CN2CCC3(CCC(=O)N(C4CC4)C3)CC2)o1,-44.98,-6.067
Cc1cccc(OCCCNC(=O)NC(C)c2nncn2C)c1 (stereo not shown),6.438,0.2316
Cc1ncc(CN2CCN(c3ccc4nncn4n3)C(C)C2)s1 (stereo not shown),9.161,-9.55
CS(=O)(=O)N1CC(c2nc(N)ncc2-c2ccc(F)cc2)C1,5.265,7.394
CC(C)CS(=O)(=O)CCNC(=O)Nc1cccc2ncccc12,6.168,0.4263
O=C(NCC1CC1)C12CC(CN1Cc1nccs1)C2,-80.54,-2.643
COCCNC(=O)c1nc(-c2ccc3cc[nH]c3c2)no1,-23.6,-20.95
CCc1ncc(C(=O)NC(C)(C)C(=O)OC)s1,-84.06,5.24
Cc1ccc(NC2CCN(C(=O)CCOCC(F)(F)F)CC2)nn1,16.69,3.021
CC(C)C(NC(N)=O)C(=O)NCc1ccc(N2CCCC2)nc1 (stereo not shown),-29.37,21.2
Cc1noc(C)c1S(=O)(=O)N1CCC(Oc2ccccn2)CC1,-25.5,14.93
Cc1nccn1-c1cc(CNC(=O)C2CCC(=O)N2)ccn1 (stereo not shown),-48.2,-2.375
CNC(=O)C1CCN(c2ncnc3c2CCN(C(=O)C2CC2)C3)C1 (stereo not shown),-22.07,-10.29
COc1ccc(CNC(=O)Nc2cccnc2N2CCCC2)cc1OC,-31.53,5.59
CCS(=O)(=O)N1CCc2ccc(NC(=O)NCCc3ccccc3)cc21,-9.614,1.464
O[C@@H]1CN(c2nc3ccccc3s2)CC[C@H]1c1ccc2c(c1)OCO2,-38.64,53.23
CC(CCc1cccn1C)NC(=O)Nc1cccn(C)c1=O (stereo not shown),-38.31,2.09
Cc1ccc(N2CC[C@H](OCC3CC3)[C@@H]2Cc2cccnc2)nn1.O=C(O)C(F)(F)F,-18.41,7.141
O=C(c1cccc2c1OCO2)N1CCCC(n2ccnc2)C1 (stereo not shown),11.97,10.91
Cc1ccc(Cl)c2c1C1(NC(=O)c3cccnc3N1)C(=O)N2 (stereo not shown),-9.079,3.302
Cc1ccsc1-c1nnc(C2CCN(Cc3ccc(F)cc3)CC2)o1,56.66,18.64
O=C(O)C(F)(F)F.O=C(O)C(F)(F)F.[H][C@@]12COC[C@H](C(=O)Nc3cccnc3)[C@]1([H])CN(Cc1cnn(C)c1)C2,-8.066,79.48
COc1ccc(CNC(=O)NC2CCN(CC3CCCC3)CC2)cn1,5.251,10.47
CC(C)c1nn(C)c(N(C)C)c1CNCCC(=O)N(C)C.Cl,-11.92,4.08
CC(C)CN1CC2(CCN(C(=O)C(O)c3cccc(Cl)c3)CC2)CC1=O (stereo not shown),-14.95,5.369
CC(C)C1CCCN1C(=O)c1ccc(-n2ncc(C#N)c2N)cc1 (stereo not shown),-1.199,19.27

For reference, 8 entries once more:

| structure | T. brucei | Toxoplasma |
|---|---|---|
| `CCN(CC1CCOC1)C(=O)c1nc(-c2ccco2)sc1C` (stereo not shown) | -22.71 | 3.233 |
| `Cc1nc(CN2CCCCC2Cn2cccn2)nc2ccccc12` (stereo not shown) | -47.76 | 0.777 |
| `Cc1noc(CS(=O)(=O)C/C=C/c2ccccc2)n1` | -21.72 | -3.951 |
| `CS(=O)(=O)N1CC(c2nc(N)ncc2-c2ccc(F)cc2)C1` | 5.265 | 7.394 |
| `CCc1ncc(C(=O)NC(C)(C)C(=O)OC)s1` | -84.06 | 5.24 |
| `CCCn1cnc2c(cnn2-c2cccc(C)c2C)c1=O` | -31.54 | 12.92 |
| `CN(C)C(=O)c1ccc(CNC(=O)NCCN(C)C2CCCC2)cc1` | -26.78 | 2.01 |
| `O=C(c1cncs1)N1CCOCC(Cc2ccncn2)C1` (stereo not shown) | 1.061 | -5.344 |

Data taken from ChEMBL document CHEMBL3988442, “University of Dundee, Small-Polar-MMV Screening Library” (2021).